# Source: US20250283871A1, “COMPOSITIONS AND METHODS FOR MODULATING THE INTERACTION BETWEEN SS18-SSX FUSION ONCOPROTEIN AND NUCLEOSOMES” (Dana-Farber Cancer Institute, Inc., priority 2020, published 2025)
# Tested on: BAF complex subunits and histone proteins
# Assay: Mass spectrometry proteomics of purified HA-SS18 WT and HA-SS18-SSX1 complexes (Tables 5A-5E)
# Parameters: species or system human
# [1] = HA-SS18SSX1_CHR_peptides: proteins found in HA-SS18-SSX1 BAF complex purification from solubilized chromatin (CHR), HEK-293T
# [2] = HA-SS18SSX1 purification, NE (soluble nuclear extract) fraction, HEK-293T, peptides per identified protein
# [3] = HA-SS18WT_CHR_peptides: protein identified in HA-SS18 WT BAF complex purification from nuclease-treated solubilized chromatin (CHR), HEK-293T
# [4] = HA-SS18WT_NE_peptides: HA-SS18 WT complexes purified from nuclear extract (NE), HEK-293T, label = protein identified (Gene Symbol)
# [5] = HA-SS18SSX1_NE_peptides: protein co-purified with HA-SS18-SSX1 BAF complexes from soluble nuclear extract (NE), HEK-293T cells
# [6] = HA-SS18WT_NE_peptides: proteins co-purified with HA-SS18 WT from nuclear extract (NE), HEK-293T
molecule,measurement,setting,value
"GTF3C3 (protein, UniProt Q9Y5Q9 2-886, looked up) General transcription factor …: SGFSPELIDYLEGKISFEEFERRREERKTREKKSLQEKGKLSAEENPDDSEVPSSSGINSTKSQDKDVNEGETSDGVRKSVHKVFASMLGENEDDEEEEEEEEEEEEEEETPEQPTAGDVFVLEMVLNRETKKMMKEKRPRSKLPRALRGLMGEANIRFARGEREEAILMCMEIIRQAPLAYEPFSTLAMIYEDQGDMEKSLQFELIAAHLNPSDTEEWVRLAEMSLEQDNIKQAIFCYTKALKYEPTNVRYLWERSSLYEQMGDHKMAMDGYRRILNLLSPSDGERFMQLARDMAKSYYEANDVTSAINIIDEAFSKHQGLVSMEDVNIAAELYISNKQYDKALEIITDFSGIVLEKKTSEEGTSEENKAPENVTCTIPDGVPIDITVKLMVCLVHLNILEPLNPLLTTLVEQNPEDMGDLYLDVAEAFLDVGEYNSALPLLSALVCSERYNLAVVWLRHAECLKALGYMERAAESYGKVVDLAPLHLDARISLSTLQQQLGQPEKALEALEPMYDPDTLAQDANAAQQELKLLLHRSTLLFSQGKMYGYVDTLLTMLAMLLKVAMNRAQVCLISSSKSGERHLYLIKVSRDKISDSNDQESANCDAKAIFAVLTSVLTKDDWWNLLLKAIYSLCDLSRFQEAELLVDSSLEYYSFYDDRQKRKELEYFGLSAAILDKNFRKAYNYIRIMVMENVNKPQLWNIFNQVTMHSQDVRHHRFCLRLMLKNPENHALCVLNGHNAFVSGSFKHALGQYVQAFRTHPDEPLYSFCIGLTFIHMASQKYVLRRHALIVQGFSFLNRYLSLRGPCQESFYNLGRGLHQLGLIHLAIHYYQKALELPPLVVEGIELDQLDLRRDIAYNLSLIYQSSGNTGMAQTLLYTYCSI",Total (peptides),[1],1
same,Unique (peptides),[1],1
"ZMYND8 (protein, UniProt Q9ULU4 1-1186, looked up) MYND-type zinc …: MDISTRSKDPGSAERTAQKRKFPSPPHSSNGHSPQDTSTSPIKKKKKPGLLNSNNKEQSELRHGPFYYMKQPLTTDPVDVVPQDGRNDFYCWVCHREGQVLCCELCPRVYHAKCLRLTSEPEGDWFCPECEKITVAECIETQSKAMTMLTIEQLSYLLKFAIQKMKQPGTDAFQKPVPLEQHPDYAEYIFHPMDLCTLEKNAKKKMYGCTEAFLADAKWILHNCIIYNGGNHKLTQIAKVVIKICEHEMNEIEVCPECYLAACQKRDNWFCEPCSNPHPLVWAKLKGFPFWPAKALRDKDGQVDARFFGQHDRAWVPINNCYLMSKEIPFSVKKTKSIFNSAMQEMEVYVENIRRKFGVFNYSPFRTPYTPNSQYQMLLDPTNPSAGTAKIDKQEKVKLNFDMTASPKILMSKPVLSGGTGRRISLSDMPRSPMSTNSSVHTGSDVEQDAEKKATSSHFSASEESMDFLDKSTASPASTKTGQAGSLSGSPKPFSPQLSAPITTKTDKTSTTGSILNLNLDRSKAEMDLKELSESVQQQSTPVPLISPKRQIRSRFQLNLDKTIESCKAQLGINEISEDVYTAVEHSDSEDSEKSDSSDSEYISDDEQKSKNEPEDTEDKEGCQMDKEPSAVKKKPKPTNPVEIKEELKSTSPASEKADPGAVKDKASPEPEKDFSEKAKPSPHPIKDKLKGKDETDSPTVHLGLDSDSESELVIDLGEDHSGREGRKNKKEPKEPSPKQDVVGKTPPSTTVGSHSPPETPVLTRSSAQTSAAGATATTSTSSTVTVTAPAPAATGSPVKKQRPLLPKETAPAVQRVVWNSSSKFQTSSQKWHMQKMQRQQQQQQQQNQQQQPQSSQGTRYQTRQAVKAVQQKEITQSPSTSTITLVTSTQSSPLVTSSGSMSTLVSSVNADLPIATASADVAADIAKYTSKMMDAIKGTMTEIYNDLSKNTTGSTIAEIRRLRIEIEKLQWLHQQELSEMKHNLELTMAEMRQSLEQERDRLIAEVKKQLELEKQQAVDETKKKQWCANCKKEAIFYCCWNTSYCDYPCQQAHWPEHMKSCTQSATAPQQEADAEVNTETLNKSSQGSSSSTQSAPSETASASKEKETSAEKSKESGSTLDLSGSRETPSSILLGSNQGSDHSRSNKSSWSSSDEKRGSTRSDHNTSTSTKSLLPKESRLDTFWD",Total (peptides),[1],1
same,Unique (peptides),[1],1
"PATZ1 (protein, UniProt Q9HBE1 1-687, looked up) POZ-, AT hook-, and zinc …: MERVNDASCGPSGCYTYQVSRHSTEMLHNLNQQRKNGGRFCDVLLRVGDESFPAHRAVLAACSEYFESVFSAQLGDGGAADGGPADVGGATAAPGGGAGGSRELEMHTISSKVFGDILDFAYTSRIVVRLESFPELMTAAKFLLMRSVIEICQEVIKQSNVQILVPPARADIMLFRPPGTSDLGFPLDMTNGAALAANSNGIAGSMQPEEEAARAAGAAIAGQASLPVLPGVDRLPMVAGPLSPQLLTSPFPSVASSAPPLTGKRGRGRPRKANLLDSMFGSPGGLREAGILPCGLCGKVFTDANRLRQHEAQHGVTSLQLGYIDLPPPRLGENGLPISEDPDGPRKRSRTRKQVACEICGKIFRDVYHLNRHKLSHSGEKPYSCPVCGLRFKRKDRMSYHVRSHDGSVGKPYICQSCGKGFSRPDHLNGHIKQVHTSERPHKCQTCNASFATRDRLRSHLACHEDKVPCQVCGKYLRAAYMADHLKKHSEGPSNFCSICNRGFSSASYLKVHVKTHHGVPLPQVSRHQEPILNGGAAFHCARTYGNKEGQKCSHQDPIESSDSYGDLSDASDLKTPEKQSANGSFSCDMAVPKNKMESDGEKKYPCPECGSFFRSKSYLNKHIQKVHVRALGGPLGDLGPALGSPFSPQQNMSLLESFGFQIVQSAFASSLVDPEVDQQPMGPEGK",Total (peptides),[1],1
same,Unique (peptides),[1],1
same,Total (total peptides),[2],3
same,Unique (unique peptides),[2],3
same,Total (total peptides),[3],1
same,Unique (unique peptides),[3],1
"SSR4 (protein, UniProt P51571 24-173, looked up) Translocon-associated protein …: EACLEPQITPSYYTTSDAVISTETVFIVEISLTCKNRVQNMALYADVGGKQFPVTRGQDVGRYQVSWSLDHKSAHAGTYEVRFFDEESYSLLRKAQRNNEDISIIPPLFTVSVDHRGTWNGPWVSTEVLAAAIGLVIYYLAFSAKSHIQA",Total (peptides),[1],1
same,Unique (peptides),[1],1
same,Total (total peptides),[2],3
same,Unique (unique peptides),[2],3
same,Total (total peptides),[3],1
same,Unique (unique peptides),[3],1
same,Total (peptides),[4],6
same,Unique (peptides),[4],4
"RING1 (protein, UniProt Q06587 1-406, looked up) E3 ubiquitin-protein ligase …: MTTPANAQNASKTWELSLYELHRTPQEAIMDGTEIAVSPRSLHSELMCPICLDMLKNTMTTKECLHRFCSDCIVTALRSGNKECPTCRKKLVSKRSLRPDPNFDALISKIYPSREEYEAHQDRVLIRLSRLHNQQALSSSIEEGLRMQAMHRAQRVRRPIPGSDQTTTMSGGEGEPGEGEGDGEDVSSDSAPDSAPGPAPKRPRGGGAGGSSVGTGGGGTGGVGGGAGSEDSGDRGGTLGGGTLGPPSPPGAPSPPEPGGEIELVFRPHPLLVEKGEYCQTRYVKTTGNATVDHLSKYLALRIALERRQQQEAGEPGGPGGGASDTGGPDGCGGEGGGAGGGDGPEEPALPSLEGVSEKQYTIYIAPGGGAFTTLNGSLTLELVNEKFWKVSRPLELCYAPTKDPK",Total (peptides),[1],1
same,Unique (peptides),[1],1
same,Total (peptides),[5],1
same,Unique (peptides),[5],1
same,Total (total peptides),[3],1
same,Unique (unique peptides),[3],1
"MCM5 (protein, UniProt P33992 2-734, looked up) DNA replication licensing …: SGFDDPGIFYSDSFGGDAQADEGQARKSQLQRRFKEFLRQYRVGTDRTGFTFKYRDELKRHYNLGEYWIEVEMEDLASFDEDLADYLYKQPAEHLQLLEEAAKEVADEVTRPRPSGEEVLQDIQVMLKSDASPSSIRSLKSDMMSHLVKIPGIIIAASAVRAKATRISIQCRSCRNTLTNIAMRPGLEGYALPRKCNTDQAGRPKCPLDPYFIMPDKCKCVDFQTLKLQELPDAVPHGEMPRHMQLYCDRYLCDKVVPGNRVTIMGIYSIKKFGLTTSRGRDRVGVGIRSSYIRVLGIQVDTDGSGRSFAGAVSPQEEEEFRRLAALPNVYEVISKSIAPSIFGGTDMKKAIACLLFGGSRKRLPDGLTRRGDINLLMLGDPGTAKSQLLKFVEKCSPIGVYTSGKGSSAAGLTASVMRDPSSRNFIMEGGAMVLADGGVVCIDEFDKMREDDRVAIHEAMEQQTISIAKAGITTTLNSRCSVLAAANSVFGRWDETKGEDNIDFMPTILSRFDMIFIVKDEHNEERDVMLAKHVITLHVSALTQTQAVEGEIDLAKLKKFIAYCRVKCGPRLSAEAAEKLKNRYIIMRSGARQHERDSDRRSSIPITVRQLEAIVRIAEALSKMKLQPFATEADVEEALRLFQVSTLDAALSGTLSGVEGFTSQEDQEMLSRIEKQLKRRFAIGSQVSEHSIIKDFTKQKYPEHAIHKVLQLMLRRGEIQHRMQRKVLYRLK",Total (peptides),[1],1
same,Unique (peptides),[1],1
"BBX (protein, UniProt Q8WY36 1-941, looked up) HMG box transcription factor …: MKGSNRNKDHSAEGEGVGKRPKRKCLQWHPLLAKKLLDFSEEEEEEDEEEDIDKVQLLGADGLEQDVGETEDDESPEQRARRPMNAFLLFCKRHRSLVRQEHPRLDNRGATKILADWWAVLDPKEKQKYTDMAKEYKDAFMKANPGYKWCPTTNKPVKSPTPTVNPRKKLWAFPSDSSRDLPSPKKAKTEEMPQLNFGMADPTQMGGLSMLLLAGEHALGTPEVSSGTCRPDVSESPELRQKSPLFQFAEISSSTSHSDASTKQCQTSALFQFAEISSNTSQLGGAEPVKRCGKSALFQLAEMCLASEGMKMEESKLIKAKESDGGRIKELEKGKEEKEIKMEKTDETRLQKEAEFEKSAKENLRDSKELRNFEALQIDDIMAIKMEDPKEIRKEELEEDHKCSHFPDFSYSASSKIIISDVPSRKDHMCHPHGIMIIEDPAALNKPEKLKKKKKKSKMDRHGNDKSTPKKTCKKRQSSESDIESVIYTIEAVAKGDWGIEKLGDTPRKKVRTSSSGKGSILDAKPPKKKVKSREKKMSKEKSSDTTKESRPPDFISISASKNISGETPEGIKAEPLTPMEDALPPSLSGQAKPEDSDCHRKIETCGSRKSERSCKGALYKTLVSEGMLTSLRANVDRGKRSSGKGNSSDHEGCWNEESWTFSQSGTSGSKKFKKTKPKEDCLLGSAKLDEEFEKKFNSLPQYSPVTFDRKCVPVPRKKKKTGNVSSEPTKTSKGPFQSQKKNLFHKIVSKYKHKKEKPNVPEKGSGDKWSNKQLFLDAIHPTEAIFSEDRNTMEPVHKVKNIPSIFNTPEPTTTQEPLVGSQKRKARKTKITHLVRTADGRVSPAGGTLDDKPKEQLQRSLPKATETDCNDKCSHNTEVGETRSSTPEMPAVSAFFSLAALAEVAAMENVHRGQRSTPLTHDGQPKEMPQAPVLISCADQ",Total (peptides),[1],1
same,Unique (peptides),[1],1
same,Total (peptides),[5],2
same,Unique (peptides),[5],2
same,Total (peptides),[6],1
same,Unique (peptides),[6],1
